Data as given in patent publication US20200392251A1 (University of California, published 2020).

Sequences of proteins named here, by UniProt entry; tags and fusion partners are left off. A line that says so, or that is headed by a name, gives the form on record, which may keep a tag or linker.
UniProt P39900, other isoform, or with tags, fused parts or gaps limits assumed: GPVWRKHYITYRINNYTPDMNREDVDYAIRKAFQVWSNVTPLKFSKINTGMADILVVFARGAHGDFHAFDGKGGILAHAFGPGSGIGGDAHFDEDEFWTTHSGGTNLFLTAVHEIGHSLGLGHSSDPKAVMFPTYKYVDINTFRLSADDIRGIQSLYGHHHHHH

Target: T1, human MMP-12 catalytic domain wild type (cdMMP-12 wt) (human, UniProt P39900 106-263)
T1 construct: biotinylated for ELISA/BLI; also called wt cdMMP-12; cdMMP-12 wide-type
Test: BLItz bio-layer interferometry; printed as 'Affinity ... (nM)'

B1: N-terminal domain of tissue inhibitor of metalloproteinases 1 (nTIMP-1) (other, UniProt P01033 24-149, looked up)
chain: CTCVPPHPQTAFCNSDLVIRAKFVGTPEVNQTTLYQRYEIKMTKMYKGFQALGDAADIRFVYTPAMESVCGYFHRSHNRSEEFLIAGKLQDGLLHITTCSFVAPWNSLSLAQRRGFTKTYTVGCEE
notes: domain: N-terminal domain; Periplasmically expressed and purified as reported elsewhere
B1 gave a Kd of 480 nM.
